Laboratory results as given in the supplement of paper PMC12823440, “Inhibitors supercharge kinase turnover through native proteolytic circuits” (Nature, 2025).
This is one part of the list. Hit calls seldom repeat between salt and free forms of one compound.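 In K562 cells expressing nanoluciferase-fused kinases, luminescence was recorded at 4 h intervals between 2 and 18 h, normalized as percent of control with DMSO at 100% and a positive control at 0%. A significant (2 sigma) signal drop marks a time point as decreased. The authors' rule for a hit is not shown and takes in more than the number of time points.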

Chains of the proteins cited; added tags and fusions are not shown. Lines headed by an entry give the natural chain unless they say otherwise; changes in a name come on top.
UniProt P31749: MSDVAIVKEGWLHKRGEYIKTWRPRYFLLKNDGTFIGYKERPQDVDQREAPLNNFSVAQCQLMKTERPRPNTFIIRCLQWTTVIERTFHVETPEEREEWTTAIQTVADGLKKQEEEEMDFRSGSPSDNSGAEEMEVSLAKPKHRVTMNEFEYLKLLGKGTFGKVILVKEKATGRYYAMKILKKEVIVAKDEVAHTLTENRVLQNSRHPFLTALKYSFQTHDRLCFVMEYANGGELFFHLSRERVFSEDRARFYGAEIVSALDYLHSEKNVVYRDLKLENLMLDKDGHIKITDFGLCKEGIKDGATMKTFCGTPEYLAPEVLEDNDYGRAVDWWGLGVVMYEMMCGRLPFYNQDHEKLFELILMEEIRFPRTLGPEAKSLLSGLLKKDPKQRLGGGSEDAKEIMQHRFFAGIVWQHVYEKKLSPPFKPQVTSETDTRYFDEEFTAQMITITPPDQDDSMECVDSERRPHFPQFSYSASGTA
UniProt Q9UM73: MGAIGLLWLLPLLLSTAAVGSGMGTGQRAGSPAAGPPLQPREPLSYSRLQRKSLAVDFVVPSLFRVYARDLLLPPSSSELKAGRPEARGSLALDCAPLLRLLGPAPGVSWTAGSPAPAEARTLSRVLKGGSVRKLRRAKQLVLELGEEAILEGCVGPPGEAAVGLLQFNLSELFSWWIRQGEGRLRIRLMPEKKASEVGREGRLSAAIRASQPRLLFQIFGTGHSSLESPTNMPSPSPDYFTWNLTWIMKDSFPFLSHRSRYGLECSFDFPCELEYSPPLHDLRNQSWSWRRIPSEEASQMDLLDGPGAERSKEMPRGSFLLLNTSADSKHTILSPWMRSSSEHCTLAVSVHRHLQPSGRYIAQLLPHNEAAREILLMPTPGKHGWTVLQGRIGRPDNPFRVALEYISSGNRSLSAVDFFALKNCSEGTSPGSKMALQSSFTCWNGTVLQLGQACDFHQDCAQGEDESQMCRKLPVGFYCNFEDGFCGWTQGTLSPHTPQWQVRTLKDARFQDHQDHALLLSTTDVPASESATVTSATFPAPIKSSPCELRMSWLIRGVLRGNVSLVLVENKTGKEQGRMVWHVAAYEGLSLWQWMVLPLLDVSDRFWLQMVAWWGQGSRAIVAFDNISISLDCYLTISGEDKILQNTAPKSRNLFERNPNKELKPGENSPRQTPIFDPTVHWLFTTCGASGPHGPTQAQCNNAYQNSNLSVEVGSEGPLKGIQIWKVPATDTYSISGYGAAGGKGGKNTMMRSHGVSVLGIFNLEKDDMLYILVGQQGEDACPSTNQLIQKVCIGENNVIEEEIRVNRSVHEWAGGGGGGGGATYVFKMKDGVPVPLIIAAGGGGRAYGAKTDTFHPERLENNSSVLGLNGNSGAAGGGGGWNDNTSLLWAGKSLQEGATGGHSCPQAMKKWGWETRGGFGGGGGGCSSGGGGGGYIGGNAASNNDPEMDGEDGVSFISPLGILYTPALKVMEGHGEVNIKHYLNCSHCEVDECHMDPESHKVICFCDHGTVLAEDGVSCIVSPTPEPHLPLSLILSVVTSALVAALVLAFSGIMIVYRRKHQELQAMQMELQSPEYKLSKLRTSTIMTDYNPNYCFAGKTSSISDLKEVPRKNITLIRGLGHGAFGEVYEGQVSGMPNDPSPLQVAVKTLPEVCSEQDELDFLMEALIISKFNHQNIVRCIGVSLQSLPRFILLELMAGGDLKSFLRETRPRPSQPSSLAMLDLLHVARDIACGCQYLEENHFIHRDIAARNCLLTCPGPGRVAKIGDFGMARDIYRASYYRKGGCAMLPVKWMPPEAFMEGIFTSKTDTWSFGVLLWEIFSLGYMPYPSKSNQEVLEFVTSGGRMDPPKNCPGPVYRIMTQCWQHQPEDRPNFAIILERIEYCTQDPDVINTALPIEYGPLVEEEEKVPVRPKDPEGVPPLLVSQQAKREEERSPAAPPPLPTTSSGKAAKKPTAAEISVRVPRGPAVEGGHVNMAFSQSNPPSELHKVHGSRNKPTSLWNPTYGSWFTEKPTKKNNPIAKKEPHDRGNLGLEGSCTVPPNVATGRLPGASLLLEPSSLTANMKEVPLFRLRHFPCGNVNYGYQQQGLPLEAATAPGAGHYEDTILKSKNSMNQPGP
UniProt P10398: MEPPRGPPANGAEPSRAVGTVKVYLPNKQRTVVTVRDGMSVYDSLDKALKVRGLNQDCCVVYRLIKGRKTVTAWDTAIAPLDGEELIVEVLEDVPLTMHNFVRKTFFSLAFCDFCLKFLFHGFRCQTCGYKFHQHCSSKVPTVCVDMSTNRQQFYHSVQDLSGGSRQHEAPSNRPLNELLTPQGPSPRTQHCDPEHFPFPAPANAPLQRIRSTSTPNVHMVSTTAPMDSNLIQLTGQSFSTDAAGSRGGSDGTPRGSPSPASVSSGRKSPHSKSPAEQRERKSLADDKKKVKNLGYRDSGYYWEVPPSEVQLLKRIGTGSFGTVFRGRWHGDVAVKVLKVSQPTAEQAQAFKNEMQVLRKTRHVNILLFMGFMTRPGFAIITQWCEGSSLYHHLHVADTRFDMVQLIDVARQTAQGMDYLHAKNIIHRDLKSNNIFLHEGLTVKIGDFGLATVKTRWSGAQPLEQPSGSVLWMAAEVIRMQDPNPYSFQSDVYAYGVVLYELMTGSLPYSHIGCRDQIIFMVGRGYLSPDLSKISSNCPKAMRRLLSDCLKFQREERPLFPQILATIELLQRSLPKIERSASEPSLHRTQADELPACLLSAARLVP
UniProt O14965: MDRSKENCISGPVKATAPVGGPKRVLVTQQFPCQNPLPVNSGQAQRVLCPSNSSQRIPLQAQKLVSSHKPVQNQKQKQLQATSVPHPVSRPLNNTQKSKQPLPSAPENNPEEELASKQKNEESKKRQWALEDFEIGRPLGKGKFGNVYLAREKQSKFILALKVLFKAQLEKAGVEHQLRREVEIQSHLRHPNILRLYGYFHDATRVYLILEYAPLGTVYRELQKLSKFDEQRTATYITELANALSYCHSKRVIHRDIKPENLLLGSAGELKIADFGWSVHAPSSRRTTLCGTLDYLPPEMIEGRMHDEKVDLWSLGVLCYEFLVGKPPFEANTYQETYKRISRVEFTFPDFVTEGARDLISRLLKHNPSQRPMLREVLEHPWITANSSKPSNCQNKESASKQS
UniProt Q96GD4, whole entry: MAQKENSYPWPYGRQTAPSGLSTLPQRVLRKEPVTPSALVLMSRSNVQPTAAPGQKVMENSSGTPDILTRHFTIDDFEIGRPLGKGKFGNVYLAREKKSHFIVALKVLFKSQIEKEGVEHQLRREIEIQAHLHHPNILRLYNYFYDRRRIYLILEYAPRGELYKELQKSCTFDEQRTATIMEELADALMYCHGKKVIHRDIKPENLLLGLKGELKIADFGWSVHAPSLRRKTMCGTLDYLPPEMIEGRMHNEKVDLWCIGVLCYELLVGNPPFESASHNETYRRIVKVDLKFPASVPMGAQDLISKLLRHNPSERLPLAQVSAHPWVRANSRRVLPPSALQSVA
UniProt Q9UQB9: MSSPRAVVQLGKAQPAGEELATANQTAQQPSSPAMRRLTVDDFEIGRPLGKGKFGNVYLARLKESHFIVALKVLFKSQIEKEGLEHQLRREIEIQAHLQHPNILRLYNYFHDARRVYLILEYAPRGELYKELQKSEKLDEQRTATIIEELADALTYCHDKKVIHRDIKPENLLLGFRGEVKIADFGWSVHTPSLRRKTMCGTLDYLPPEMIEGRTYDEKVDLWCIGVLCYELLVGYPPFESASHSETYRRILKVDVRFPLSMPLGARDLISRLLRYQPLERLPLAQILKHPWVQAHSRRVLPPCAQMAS
UniProt P51451: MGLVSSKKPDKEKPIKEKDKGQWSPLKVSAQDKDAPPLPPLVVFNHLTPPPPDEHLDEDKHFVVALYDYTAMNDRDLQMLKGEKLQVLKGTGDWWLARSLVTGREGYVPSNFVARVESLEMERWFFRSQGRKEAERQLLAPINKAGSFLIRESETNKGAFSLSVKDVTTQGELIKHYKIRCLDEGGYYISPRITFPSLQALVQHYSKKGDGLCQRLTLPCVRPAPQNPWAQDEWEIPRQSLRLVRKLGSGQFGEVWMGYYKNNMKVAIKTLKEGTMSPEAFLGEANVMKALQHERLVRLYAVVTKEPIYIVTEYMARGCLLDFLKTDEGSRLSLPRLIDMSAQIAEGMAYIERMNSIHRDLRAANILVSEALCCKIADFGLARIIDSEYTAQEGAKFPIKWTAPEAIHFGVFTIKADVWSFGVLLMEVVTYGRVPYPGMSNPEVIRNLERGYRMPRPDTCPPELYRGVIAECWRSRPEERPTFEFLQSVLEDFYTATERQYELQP
UniProt P51813: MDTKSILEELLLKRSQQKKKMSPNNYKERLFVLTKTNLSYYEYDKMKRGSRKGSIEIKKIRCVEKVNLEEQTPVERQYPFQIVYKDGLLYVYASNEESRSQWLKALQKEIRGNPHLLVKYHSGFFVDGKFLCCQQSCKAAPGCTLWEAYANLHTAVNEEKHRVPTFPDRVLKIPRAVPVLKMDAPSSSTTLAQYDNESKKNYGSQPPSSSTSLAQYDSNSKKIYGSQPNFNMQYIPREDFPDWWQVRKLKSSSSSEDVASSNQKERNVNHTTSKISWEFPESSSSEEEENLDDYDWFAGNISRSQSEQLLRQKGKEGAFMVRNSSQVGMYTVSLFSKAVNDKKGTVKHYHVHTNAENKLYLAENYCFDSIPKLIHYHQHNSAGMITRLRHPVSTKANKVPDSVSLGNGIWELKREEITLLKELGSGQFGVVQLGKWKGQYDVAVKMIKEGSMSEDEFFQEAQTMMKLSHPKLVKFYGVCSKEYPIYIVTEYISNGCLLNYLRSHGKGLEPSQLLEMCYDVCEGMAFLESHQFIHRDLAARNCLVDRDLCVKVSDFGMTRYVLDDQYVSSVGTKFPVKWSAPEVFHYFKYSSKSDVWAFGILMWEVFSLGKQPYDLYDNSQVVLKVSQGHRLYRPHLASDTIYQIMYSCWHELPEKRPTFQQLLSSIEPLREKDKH
UniProt P15056, whole entry, looked up: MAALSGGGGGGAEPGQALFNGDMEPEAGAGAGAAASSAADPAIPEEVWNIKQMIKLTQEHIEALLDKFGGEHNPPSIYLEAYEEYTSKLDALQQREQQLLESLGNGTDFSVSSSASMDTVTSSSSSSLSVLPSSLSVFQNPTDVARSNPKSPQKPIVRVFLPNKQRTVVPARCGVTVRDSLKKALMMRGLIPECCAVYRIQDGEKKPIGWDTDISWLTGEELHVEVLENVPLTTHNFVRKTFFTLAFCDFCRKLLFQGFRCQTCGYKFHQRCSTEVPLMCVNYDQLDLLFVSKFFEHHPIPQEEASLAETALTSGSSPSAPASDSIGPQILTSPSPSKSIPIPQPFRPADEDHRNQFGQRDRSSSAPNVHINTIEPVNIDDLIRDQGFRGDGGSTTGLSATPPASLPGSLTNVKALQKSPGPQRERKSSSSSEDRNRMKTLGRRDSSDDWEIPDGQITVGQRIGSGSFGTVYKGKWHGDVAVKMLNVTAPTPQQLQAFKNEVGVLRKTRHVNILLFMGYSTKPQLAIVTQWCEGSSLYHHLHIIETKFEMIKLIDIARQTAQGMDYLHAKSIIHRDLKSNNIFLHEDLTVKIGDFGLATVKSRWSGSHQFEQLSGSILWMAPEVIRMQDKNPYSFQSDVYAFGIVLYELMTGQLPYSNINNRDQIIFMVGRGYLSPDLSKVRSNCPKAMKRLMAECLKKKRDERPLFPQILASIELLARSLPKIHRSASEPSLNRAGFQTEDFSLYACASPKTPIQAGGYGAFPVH

Tests used:
Assay in all cases: kinase-Nluc reporter destabilization hit call (1 = scored as downregulated) (binary); higher = compound decreases kinase abundance
Details in all cases: K562; 2-18 h
[1] = target: ABL1 (UniProt P00519)
[2] = target: AKT1 (UniProt P31749)
[3] = target: ALK (UniProt Q9UM73)
[4] = target: ARAF (UniProt P10398)
[5] = target: AURKA (UniProt O14965)
[6] = target: AURKB (UniProt Q96GD4)
[7] = target: AURKC (UniProt Q9UQB9)
[8] = target: BLK (UniProt P51451)
[9] = target: BMX (UniProt P51813)
[10] = target: BRAF (UniProt P15056)

Measured: kinase-Nluc reporter destabilization hit call

CNC(=O)c1ccccc1Oc1nc(Nc2cc(OC)c(OC)c(OC)c2)ncc1Br (2.5 µM)
inactive: [1] 0 | [2] 0 | [3] 0 | [4] 0 | [5] 0 | [6] 0 | [7] 0 | [8] 0 | [9] 0 | [10] 0

Oc1ccc(/C=C/c2cc(O)cc(O)c2)cc1 [Resveratrol] (10 µM)
inactive: [1] 0 | [2] 0 | [3] 0 | [4] 0 | [5] 0 | [6] 0 | [7] 0 | [8] 0 | [9] 0 | [10] 0

CNc1cc(Nc2cccn(-c3ccccn3)c2=O)nn2c(C(=O)N[C@@H]3C[C@@H]3F)cnc12 (2.5 µM)
inactive: [1] 0 | [2] 0 | [3] 0 | [4] 0 | [5] 0 | [6] 0 | [7] 0 | [8] 0 | [9] 0 | [10] 0
